# Measured values reported in article PMC11260452.
# By UniProt entry, the sequences of proteins in these tests, tags left out. Residues count along the entry.
# UniProt P31316, 167-305 I234E: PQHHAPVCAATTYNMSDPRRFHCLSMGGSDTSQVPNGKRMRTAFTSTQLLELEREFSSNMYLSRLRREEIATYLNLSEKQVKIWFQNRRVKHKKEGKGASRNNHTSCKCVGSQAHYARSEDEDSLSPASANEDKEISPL
# UniProt P31316, 167-305: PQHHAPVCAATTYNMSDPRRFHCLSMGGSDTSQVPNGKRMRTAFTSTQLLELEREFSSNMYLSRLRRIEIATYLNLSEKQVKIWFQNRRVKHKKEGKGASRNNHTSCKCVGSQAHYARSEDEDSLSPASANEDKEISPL
# How the values were obtained:
# [1] = biological target: Gsx2 167-305 I234E (Mus musculus) (UniProt P31316); test: EMSA; conditions: tau only in figure, EMSA: 35 nM probe, 15 min room temperature, recombinant protein, residues 167-305, protein details: N-terminal His-tag, cleaved with PreScission, label: 5' IRDye700 on complementary strand (linker S14)
# [2] = biological target: Gsx2 167-305 (Mus musculus) (UniProt P31316); test: EMSA; conditions: not strongly cooperative, tau only in figure; EMSA: 35 nM probe, 15 min room temperature; recombinant protein; residues 167-305; protein details: N-terminal His-tag, cleaved with PreScission; label: 5' IRDye700 on complementary strand (linker S14)
Sequence,binding result ([1]; cooperativity compromised),binding result [2],binding result ([1]; not cooperative)
TCCAACTAATTAAAATTTAATTCGTAGTGCGGGCGTGGCT (double strand) [7bpS / AAATT spacer dimer probe],binds,,
TCCAACTAATTAAAGATTTAATTCGTAGTGCGGGCGTGGCT (double strand) [8bpS dimer probe],,binds,binds

# The exact form of at least one protein or probe is not confirmed. At least one verdict rests on a figure or table, not on a statement of the authors.
